No constants are given. Whether binding was seen depends on the method and setting. Binding seen in cells or lysates may run through a third protein. Some binding calls cover weakened binding; strength is not graded here.
Experiments:
[1] = target: GFP-hsCENP-H WT (human) (UniProt Q9H3R5); test: co-IP; HeLa Tet-On cells co-transfected with GFP-hsCENP-H (WT or mutants), non-tagged hsCENP-K and MYC-hsCENP-I; anti-GFP antibody beads; lysis buffer with 75 mM NaCl, 0.1% NP-40 and Turbo-nuclease; immunoblot
[2] = target: GFP-hsCENP-H K234E/L238A (human) (UniProt Q9H3R5); test: as above

Amino acid sequences for entries named in this document (tags omitted). A change or cut given only in a name is not applied to a line headed by its entry.
UniProt Q9H3R5: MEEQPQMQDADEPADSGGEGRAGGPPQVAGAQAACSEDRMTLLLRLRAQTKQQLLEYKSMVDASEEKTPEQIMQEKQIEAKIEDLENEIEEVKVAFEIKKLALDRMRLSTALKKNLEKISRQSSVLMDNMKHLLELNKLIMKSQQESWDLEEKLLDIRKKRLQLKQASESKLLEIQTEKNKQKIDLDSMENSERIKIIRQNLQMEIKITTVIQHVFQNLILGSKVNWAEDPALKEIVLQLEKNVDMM
UniProt Q92674: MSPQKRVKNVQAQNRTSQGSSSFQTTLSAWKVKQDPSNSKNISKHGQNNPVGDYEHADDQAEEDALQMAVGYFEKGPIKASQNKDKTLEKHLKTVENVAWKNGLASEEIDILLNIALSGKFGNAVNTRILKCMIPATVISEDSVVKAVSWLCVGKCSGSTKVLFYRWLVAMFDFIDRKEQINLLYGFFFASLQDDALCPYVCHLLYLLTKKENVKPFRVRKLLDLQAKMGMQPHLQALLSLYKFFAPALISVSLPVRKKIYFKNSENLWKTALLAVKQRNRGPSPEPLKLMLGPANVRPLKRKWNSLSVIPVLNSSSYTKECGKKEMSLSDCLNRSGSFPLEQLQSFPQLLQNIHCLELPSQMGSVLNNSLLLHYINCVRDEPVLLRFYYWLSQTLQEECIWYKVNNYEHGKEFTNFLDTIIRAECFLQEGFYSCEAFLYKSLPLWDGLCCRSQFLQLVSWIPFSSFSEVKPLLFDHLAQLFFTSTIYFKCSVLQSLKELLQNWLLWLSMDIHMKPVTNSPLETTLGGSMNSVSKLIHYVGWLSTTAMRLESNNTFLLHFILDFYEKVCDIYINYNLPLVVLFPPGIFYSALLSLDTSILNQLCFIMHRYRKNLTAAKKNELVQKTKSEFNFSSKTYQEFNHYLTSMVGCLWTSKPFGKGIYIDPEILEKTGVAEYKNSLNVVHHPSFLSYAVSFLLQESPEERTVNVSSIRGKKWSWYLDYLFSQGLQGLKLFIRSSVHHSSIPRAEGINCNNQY

binding [1]: binds | binding [2]: binds
Substance: MYC-hsCENP-I (from UniProt Q92674 1-756)

Source: paper PMC6326798
